PubChem BioAssay AID504786 – Drosophila RNAi Screening Center, 2011

Assay: 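Positive regulators of HIF-driven reporter output in Drosophila cells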 (primary screen)
Cell system: Drosophila S2 cells with a stable HIF luciferase reporter
Knock-down reagent: long dsRNA against Drosophila genes, about 0.2 µg dsRNA per well of a 384-well plate
Duration: three days of knock-down, then 20 h of DFO before reading
Conditions: desferrioxamine (DFO) at 100 µM, an iron chelator that mimics hypoxia, for 20 h
Measured: 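Firefly luciferase driven by the mouse ldh-a hypoxia-response element, measured after 20 h of 100 µM DFO; z-scores per plate, higher means more signal lost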
Scale: z-score: higher = stronger loss of HIF reporter signal
The deposit covers about 21,000 reagents; shown is an unselected part of those that have a named target and a result. 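Primary screen; positive scores mean lost reporter signal, so the sign may be inverted from the usual convention.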

Target gene	dsRNA	z-score, replicate 1	z-score, replicate 2
CG8420	DRSC16418	-0.1	0.5
orb	DRSC17021	3.8	4.5
CG7457	DRSC10849	-0.3	-0.6
CG3257	DRSC04351	-0.1	-0.9
CG3009	DRSC18263	-0.2	-0.1
CG9890	DRSC04590	-0.3	-0.7
gd	DRSC20336	-0.3	-0.9
gnu	DRSC10497	-0.3	-0.3
eyg	DRSC11344	3.3	1.7
Rai1	DRSC20157	-0.3	-0.8
aqrs	DRSC14724	-0.4	0.1
Or33a	DRSC03386	-0.2	-0.2
Bx42	DRSC17743	3.5	4.9
Pomp	DRSC03201	9.5	6.7
DIP-kappa	DRSC01336	-0.3	0.1
DIP-kappa	DRSC01337	0.3	-0.1
Snx1	DRSC00531	-0.3	-0.1
Hand	DRSC02656	-0.2	-0.4
CG34223	DRSC05268	-0.2	0
pelo	DRSC03588	0.6	-0.1
CG31093	DRSC15689	-0.2	-0.8

Records above whose target name begins with P or p:
Target gene	dsRNA	z-score, replicate 1	z-score, replicate 2
Pomp	DRSC03201	9.5	6.7
pelo	DRSC03588	0.6	-0.1

More records follow.
Target gene	dsRNA	z-score, replicate 1	z-score, replicate 2
Mob3	DRSC02791	-0.4	-0.3
RpL10Aa	DRSC15518	1.7	0.3
Ran-like	DRSC10918	-0.3	-0.4
CG42534	DRSC14722	-0.3	-0.6
CG42534	DRSC14759	-0.1	-0.9
CG42534	DRSC16072	-0.5	0.1
rpr	DRSC11390	-0.4	-0.8
TfIIA-L	DRSC16882	0	0.5
shg	DRSC04714	-0.3	-0.3
rgr	DRSC06487	-0.3	-0.3
rgr	DRSC07229	-0.2	-0.1
CG33655	DRSC03858	-0.2	0
FBXO11	DRSC16497	-0.4	-0.1
